Test results reported in PMC12391806.
These are yes or no findings as the source states them, for the method shown. In cells and extracts the contact can be indirect. These calls come from enrichment with a bait or labelling near it, and not all partners need be listed.

The chains behind the UniProt entries cited, without tags or fusion partners.
UniProt P49674: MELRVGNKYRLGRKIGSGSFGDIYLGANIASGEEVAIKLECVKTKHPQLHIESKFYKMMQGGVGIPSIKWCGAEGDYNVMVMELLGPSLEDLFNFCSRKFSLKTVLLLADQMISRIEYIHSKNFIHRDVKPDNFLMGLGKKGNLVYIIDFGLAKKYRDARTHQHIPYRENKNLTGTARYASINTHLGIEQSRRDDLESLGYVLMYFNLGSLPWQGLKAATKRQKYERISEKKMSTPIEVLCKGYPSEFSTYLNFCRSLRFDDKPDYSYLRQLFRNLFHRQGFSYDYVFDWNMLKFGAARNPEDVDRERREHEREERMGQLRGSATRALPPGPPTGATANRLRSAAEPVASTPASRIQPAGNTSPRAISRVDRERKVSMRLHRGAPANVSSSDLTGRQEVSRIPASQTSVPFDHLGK
UniProt O15169: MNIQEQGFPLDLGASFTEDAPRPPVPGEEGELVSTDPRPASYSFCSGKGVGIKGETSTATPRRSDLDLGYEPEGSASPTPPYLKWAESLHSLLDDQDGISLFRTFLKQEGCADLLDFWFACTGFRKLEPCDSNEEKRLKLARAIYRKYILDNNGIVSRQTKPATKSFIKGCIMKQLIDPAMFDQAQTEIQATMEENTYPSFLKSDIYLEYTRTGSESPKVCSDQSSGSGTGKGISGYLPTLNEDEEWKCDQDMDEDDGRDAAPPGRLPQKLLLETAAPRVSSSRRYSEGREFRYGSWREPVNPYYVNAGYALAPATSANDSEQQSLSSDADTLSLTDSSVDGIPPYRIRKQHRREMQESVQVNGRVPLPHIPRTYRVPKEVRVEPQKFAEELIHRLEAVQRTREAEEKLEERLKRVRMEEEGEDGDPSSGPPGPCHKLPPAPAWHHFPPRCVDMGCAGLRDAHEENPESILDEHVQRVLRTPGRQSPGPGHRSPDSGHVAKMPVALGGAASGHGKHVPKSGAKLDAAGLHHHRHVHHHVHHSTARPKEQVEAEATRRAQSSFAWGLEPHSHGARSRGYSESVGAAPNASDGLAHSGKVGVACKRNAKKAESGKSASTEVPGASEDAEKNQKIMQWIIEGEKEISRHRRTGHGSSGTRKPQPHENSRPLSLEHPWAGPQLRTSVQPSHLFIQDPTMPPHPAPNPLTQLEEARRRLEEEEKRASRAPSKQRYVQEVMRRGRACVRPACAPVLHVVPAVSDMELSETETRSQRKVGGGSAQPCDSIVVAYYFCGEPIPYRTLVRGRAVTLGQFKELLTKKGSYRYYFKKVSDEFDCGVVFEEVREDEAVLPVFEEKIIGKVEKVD
UniProt Q5BJF2: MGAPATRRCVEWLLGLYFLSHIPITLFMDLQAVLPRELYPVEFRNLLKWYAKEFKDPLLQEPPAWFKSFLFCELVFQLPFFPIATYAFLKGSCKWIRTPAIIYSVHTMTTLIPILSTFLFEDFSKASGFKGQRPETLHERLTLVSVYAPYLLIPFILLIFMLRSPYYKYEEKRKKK
UniProt O75494: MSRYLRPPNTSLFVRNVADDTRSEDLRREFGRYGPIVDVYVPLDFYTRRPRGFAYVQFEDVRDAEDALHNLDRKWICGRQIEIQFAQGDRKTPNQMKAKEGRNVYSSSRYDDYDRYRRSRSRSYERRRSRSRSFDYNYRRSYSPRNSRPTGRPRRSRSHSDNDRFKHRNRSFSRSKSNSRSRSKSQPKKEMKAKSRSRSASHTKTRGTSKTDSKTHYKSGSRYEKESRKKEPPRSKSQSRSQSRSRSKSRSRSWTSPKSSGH

Target: CK1ε tagged with both Myc and BirA* (BioID bait) (UniProt P49674)
Assay: proximity labelling; BioID in stable A549 cells expressing Myc- and BirA*-tagged CK1ε (Tet-on); biotinylated proteins purified with streptavidin and identified by mass spectrometry

| binding | Molecule |
| --- | --- |
| binds | Axin1, endogenous in A549 cells (from UniProt O15169 1-862) |
| binds | TMEM97, endogenous in A549 cells (from UniProt Q5BJF2 1-176) |
| binds | serine/arginine-rich splicing factor 10 (SRSF10), endogenous in A549 cells (from UniProt O75494 1-262) |
| binds | DVL1, endogenous in A549 cells (protein, UniProt O14640 1-695) MAETKIIYHMDEEETPYLVKLPVAPERVTLADFKNVLSNRPVHAYKFFFKSMDQDFGVVKEEIFDDNAKLPCFNGRVVSWLVLAEGAHSDAGSQGTDSHTDLPPPLERTGGIGDSRPPSFHPNVASSRDGMDNETGTESMVSHRRERARRRNREEAARTNGHPRGDRRRDVGLPPDSASTALSSELESSSFVDSDEDGSTSRLSSSTEQSTSSRLIRKHKRRRRKQRLRQADRASSFSSITDSTMSLNIVTVTLNMERHHFLGISIVGQSNDRGDGGIYIGSIMKGGAVAADGRIEPGDMLLQVNDVNFENMSNDDAVRVLREIVSQTGPISLTVAKCWDPTPRSYFTVPRADPVRPIDPAAWLSHTAALTGALPRYGTSPCSSAVTRTSSSSLTSSVPGAPQLEEAPLTVKSDMSAVVRVMQLPDSGLEIRDRMWLKITIANAVIGADVVDWLYTHVEGFKERREARKYASSLLKHGFLRHTVNKITFSEQCYYVFGDLCSNLATLNLNSGSSGTSDQDTLAPLPHPAAPWPLGQGYPYQYPGPPPCFPPAYQDPGFSYGSGSTGSQQSEGSKSSGSTRSSRRAPGREKERRAAGAGGSGSESDHTAPSGVGSSWRERPAGQLSRGSSPRSQASATAPGLPPPHPTTKAYTVVGGPPGGPPVRELAAVPPELTGSRQSFQKAMGNPCEFFVDIM |
